# Data taken from PubChem BioAssay AID2417 (National Center for Advancing Translational Sciences (NCATS), 2010).
# In all, about 140,000 compounds went through this assay and about 4,300 (3.1%) were called active. The shares of active, inactive and inconclusive entries below differ from those in the screen.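 The calls were made as follows: active = readout at or below -70, meaning at least 70% loss of cells showing the perinucleolar compartment, a nuclear body marking cancer cells; inconclusive = readout between -30 and a set limit; inactive = the rest.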
# Test: High Content Assay for Compounds that inhibit the Assembly of the Perinucleolar Compartment;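 also: plate controls were DMSO wells for no effect and camptothecin positive control wells for full effect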
# Conditions: PC3M PTB-GFP, PNC prevalence imaging, 16 h; at 10 µM; stronger effect = lower value
# Method in brief: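 PC3M cells stably expressing PTB-GFP, 750–1000 cells/well, treated 16 h at 37 °C with compound (23 nl of library stock), in duplicate. After paraformaldehyde fixation and Hoechst stain, imaged at 20x; PNC prevalence scored by image analysis.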
row,Compound,"activity change (PNC), negative = inhibition"
1,O=C(OCc1cc2ccccc2[nH]c1=O)C1CCCO1 (stereo unspecified),inactive: 26.9%
2,CN(C(=O)COC(=O)COc1ccccc1F)C1CCS(=O)(=O)C1 (stereo unspecified),inconclusive: -47.2%
3,Cc1ccc(NC(=O)Cn2cccc2)cc1Cl,inactive: 16.7%
4,O=C(Cc1ccccc1)N1CCN=C1SCc1ccc([N+](=O)[O-])cc1,active: -90.1%
5,CCOC(=O)C1C(=O)C=C(N2CCOCC2)CC1c1cccc(OC)c1 (stereo unspecified),inactive: 11.2%
6,Cc1ccccc1C(=O)NC(=S)Nc1sc2c(c1C#N)CCCC2,inconclusive: -41.6%
7,O=C(COC(=O)CCCc1nc2ccccc2s1)Nc1ncc(Cl)cc1Cl,inactive: 31.4%
8,COc1ccc(NC(=O)CSc2nc3nc(-c4cccs4)cc(C(F)(F)F)c3c(=O)[nH]2)c(OC)c1,inactive: -2.6%
9,O=C(COC(=O)C1CCN(/C=C/C(=O)C(F)(F)F)CC1)Nc1cccc(F)c1,inconclusive: -74.2%
10,COCCCN1CN(Cc2ccccc2)CNC1=S,active: -92%
11,O=[N+]([O-])c1cc([N+](=O)[O-])c(N2CCOCC2)cc1NCc1ccccc1,inconclusive: -53.9%
12,FC(F)(F)c1nnc2c(Sc3ccccc3)nc3ccc(Cl)cc3n12,inconclusive: -40.2%
13,CONc1nc2nonc2nc1NOC,inactive: 47%
14,CNc1nc(-c2c[nH]c3ccccc23)cs1,inactive: 10.9%
15,COc1ccc(C(c2c(C)[nH]n(C(N)=S)c2=O)C(C#N)C#N)cc1 (stereo unspecified),inconclusive: -46.2%
16,Cn1c(NC(=O)/C=C/c2ccco2)cc(=O)n(C)c1=O,active: -121%
17,CCc1nnc(NC(=O)CCC(=O)N2CCN(CCc3ccccc3)CC2)s1,inconclusive: -33.8%
18,O=C(c1ccccc1NS(=O)(=O)c1ccc(Br)s1)N1CCCC1,inconclusive: -38.7%
19,C=CCc1c(C)nc(SC)nc1Nc1ccccc1,inconclusive: -39.7%
20,NS(=O)(=O)c1ccc(NC(=S)N2CCN(c3ccccc3)CC2)cc1,inconclusive: -34.9%
21,CN1CC=C2C(C#N)=C(N)C(C#N)(C#N)[C@H](c3cccc(Cl)c3)C2C1 (stereo partly specified),inconclusive: -48.9%
22,Cc1[nH]c(=O)c(C#N)cc1-c1ccccc1,inconclusive: -60.8%
23,CC(C)N(Cc1nc(-c2ccccc2)no1)C(=O)c1ccc2c(c1)OCO2,inconclusive: -69.4%
24,O=C1NCCN1Cc1ccccc1,inconclusive: -43.3%
25,Cc1nc2ccccc2c(=O)n1NC(=O)/C=C/c1ccccc1Cl,inconclusive: -33.1%
26,CC1(C)Cc2ccccc2-c2nnc(SCC(=O)N3CCN(c4ccccc4)CC3)n21,inconclusive: -56%

# An excerpt of these results, tab-delimited.
row	Compound	activity change (PNC), negative = inhibition
13	CONc1nc2nonc2nc1NOC	inactive: 47%
19	C=CCc1c(C)nc(SC)nc1Nc1ccccc1	inconclusive: -39.7%
